Paper PMC7948500, “Comparative interactomes of HSF1 in stress and disease reveal a role for CTCF in HSF1-mediated gene regulation” (The Journal of Biological Chemistry, 2020)

The chains behind the UniProt entries cited, without tags or fusion partners.
UniProt P38532: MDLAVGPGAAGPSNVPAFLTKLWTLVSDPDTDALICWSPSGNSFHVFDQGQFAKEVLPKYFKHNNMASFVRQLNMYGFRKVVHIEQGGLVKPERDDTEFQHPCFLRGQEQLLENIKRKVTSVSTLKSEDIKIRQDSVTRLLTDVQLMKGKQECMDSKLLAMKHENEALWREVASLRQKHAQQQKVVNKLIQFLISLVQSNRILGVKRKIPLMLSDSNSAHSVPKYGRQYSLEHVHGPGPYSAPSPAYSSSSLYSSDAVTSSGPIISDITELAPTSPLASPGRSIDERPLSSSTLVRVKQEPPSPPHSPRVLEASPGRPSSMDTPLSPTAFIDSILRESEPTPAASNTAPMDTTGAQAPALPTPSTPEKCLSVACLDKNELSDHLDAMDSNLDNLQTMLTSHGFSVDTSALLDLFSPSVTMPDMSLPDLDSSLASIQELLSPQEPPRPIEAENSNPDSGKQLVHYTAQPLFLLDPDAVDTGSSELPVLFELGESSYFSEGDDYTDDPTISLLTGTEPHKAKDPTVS
UniProt Q9Z2U1: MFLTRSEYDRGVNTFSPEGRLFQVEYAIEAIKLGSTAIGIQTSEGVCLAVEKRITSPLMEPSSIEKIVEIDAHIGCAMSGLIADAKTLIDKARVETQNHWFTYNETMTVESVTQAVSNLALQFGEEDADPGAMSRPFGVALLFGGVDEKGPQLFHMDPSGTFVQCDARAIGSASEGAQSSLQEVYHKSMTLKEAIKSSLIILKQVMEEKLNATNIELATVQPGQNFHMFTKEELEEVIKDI
UniProt Q91VH2: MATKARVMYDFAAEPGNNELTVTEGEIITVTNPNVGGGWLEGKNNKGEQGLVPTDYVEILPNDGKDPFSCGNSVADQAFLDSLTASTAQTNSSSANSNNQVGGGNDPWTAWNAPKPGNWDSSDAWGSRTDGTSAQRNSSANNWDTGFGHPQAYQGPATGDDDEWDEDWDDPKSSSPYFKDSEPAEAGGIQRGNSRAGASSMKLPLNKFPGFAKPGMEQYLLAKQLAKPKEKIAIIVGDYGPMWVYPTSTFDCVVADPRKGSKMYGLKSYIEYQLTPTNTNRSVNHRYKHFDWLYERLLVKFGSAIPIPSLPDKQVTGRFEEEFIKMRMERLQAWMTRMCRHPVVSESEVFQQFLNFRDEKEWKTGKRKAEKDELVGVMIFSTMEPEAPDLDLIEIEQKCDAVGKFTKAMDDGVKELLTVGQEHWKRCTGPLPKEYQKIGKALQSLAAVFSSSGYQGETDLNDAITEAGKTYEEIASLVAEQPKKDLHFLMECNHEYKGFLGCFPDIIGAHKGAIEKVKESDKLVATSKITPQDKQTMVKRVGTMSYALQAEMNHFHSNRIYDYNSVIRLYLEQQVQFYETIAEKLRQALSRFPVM
UniProt Q9JLV1: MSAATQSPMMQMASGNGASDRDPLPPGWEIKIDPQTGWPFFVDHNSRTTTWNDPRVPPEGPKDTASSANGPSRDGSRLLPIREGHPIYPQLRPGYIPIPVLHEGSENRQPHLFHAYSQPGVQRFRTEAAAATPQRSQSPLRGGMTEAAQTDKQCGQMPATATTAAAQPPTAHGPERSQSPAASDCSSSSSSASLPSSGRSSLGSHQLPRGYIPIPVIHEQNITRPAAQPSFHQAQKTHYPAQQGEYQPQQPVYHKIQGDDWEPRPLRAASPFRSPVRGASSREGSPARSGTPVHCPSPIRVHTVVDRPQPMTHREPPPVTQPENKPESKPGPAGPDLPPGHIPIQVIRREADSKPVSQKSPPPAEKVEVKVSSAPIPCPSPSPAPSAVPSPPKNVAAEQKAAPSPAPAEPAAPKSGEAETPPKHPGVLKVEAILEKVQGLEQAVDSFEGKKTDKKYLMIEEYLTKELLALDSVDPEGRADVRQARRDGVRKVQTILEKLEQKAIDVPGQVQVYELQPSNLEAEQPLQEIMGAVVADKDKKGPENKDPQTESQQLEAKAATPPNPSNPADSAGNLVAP
UniProt P60122: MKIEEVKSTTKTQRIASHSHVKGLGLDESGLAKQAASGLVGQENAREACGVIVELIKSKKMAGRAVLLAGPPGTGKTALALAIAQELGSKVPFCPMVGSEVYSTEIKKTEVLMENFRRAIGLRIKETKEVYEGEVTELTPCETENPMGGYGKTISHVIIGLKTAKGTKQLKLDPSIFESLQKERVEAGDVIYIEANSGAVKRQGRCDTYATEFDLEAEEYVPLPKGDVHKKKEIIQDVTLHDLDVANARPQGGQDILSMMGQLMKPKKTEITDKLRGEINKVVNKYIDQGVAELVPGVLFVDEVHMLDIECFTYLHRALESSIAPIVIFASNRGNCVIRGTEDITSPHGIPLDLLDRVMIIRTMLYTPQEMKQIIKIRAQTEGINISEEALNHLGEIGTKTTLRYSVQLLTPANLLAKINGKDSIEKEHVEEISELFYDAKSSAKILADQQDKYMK
UniProt P46935: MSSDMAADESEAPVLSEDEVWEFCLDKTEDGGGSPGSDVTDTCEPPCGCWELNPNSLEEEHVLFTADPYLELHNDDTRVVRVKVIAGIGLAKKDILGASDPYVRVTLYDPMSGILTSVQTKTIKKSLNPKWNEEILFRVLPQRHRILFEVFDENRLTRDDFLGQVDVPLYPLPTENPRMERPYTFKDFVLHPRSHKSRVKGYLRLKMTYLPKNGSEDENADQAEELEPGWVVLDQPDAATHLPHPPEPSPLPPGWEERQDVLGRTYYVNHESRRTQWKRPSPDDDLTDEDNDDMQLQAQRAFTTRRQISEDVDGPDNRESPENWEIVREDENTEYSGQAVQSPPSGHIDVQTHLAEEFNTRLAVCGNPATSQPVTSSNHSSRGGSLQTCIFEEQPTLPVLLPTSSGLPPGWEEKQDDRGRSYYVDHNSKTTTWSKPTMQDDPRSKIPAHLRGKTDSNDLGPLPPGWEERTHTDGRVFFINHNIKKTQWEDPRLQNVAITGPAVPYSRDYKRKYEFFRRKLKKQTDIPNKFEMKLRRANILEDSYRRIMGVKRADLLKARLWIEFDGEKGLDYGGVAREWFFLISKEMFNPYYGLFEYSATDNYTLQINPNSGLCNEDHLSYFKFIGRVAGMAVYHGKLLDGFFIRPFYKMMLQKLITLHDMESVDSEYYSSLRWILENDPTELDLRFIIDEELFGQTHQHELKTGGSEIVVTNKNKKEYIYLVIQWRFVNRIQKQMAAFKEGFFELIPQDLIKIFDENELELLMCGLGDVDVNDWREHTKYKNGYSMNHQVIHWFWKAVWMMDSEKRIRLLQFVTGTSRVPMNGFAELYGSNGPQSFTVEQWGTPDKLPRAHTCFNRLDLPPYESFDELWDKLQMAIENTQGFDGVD
UniProt Q9QUM9: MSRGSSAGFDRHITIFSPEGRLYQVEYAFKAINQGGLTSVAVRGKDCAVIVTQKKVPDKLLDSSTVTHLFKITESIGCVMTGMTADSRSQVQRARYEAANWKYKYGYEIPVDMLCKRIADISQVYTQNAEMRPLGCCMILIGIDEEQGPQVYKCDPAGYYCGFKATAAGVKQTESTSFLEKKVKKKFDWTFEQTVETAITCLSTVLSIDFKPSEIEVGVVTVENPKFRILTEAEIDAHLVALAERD
UniProt Q9WTM5: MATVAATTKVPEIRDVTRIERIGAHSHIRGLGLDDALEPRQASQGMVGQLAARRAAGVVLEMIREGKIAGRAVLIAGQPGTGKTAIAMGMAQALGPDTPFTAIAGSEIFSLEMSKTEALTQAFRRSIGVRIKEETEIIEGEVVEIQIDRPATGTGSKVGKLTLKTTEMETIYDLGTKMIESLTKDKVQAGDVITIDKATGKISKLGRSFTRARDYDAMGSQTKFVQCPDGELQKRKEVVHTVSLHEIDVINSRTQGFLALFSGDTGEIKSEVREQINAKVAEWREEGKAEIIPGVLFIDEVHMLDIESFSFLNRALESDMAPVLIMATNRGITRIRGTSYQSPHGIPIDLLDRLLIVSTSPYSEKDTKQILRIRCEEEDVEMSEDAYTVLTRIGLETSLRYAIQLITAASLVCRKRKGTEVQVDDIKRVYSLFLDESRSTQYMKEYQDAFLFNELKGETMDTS
UniProt Q6QI06: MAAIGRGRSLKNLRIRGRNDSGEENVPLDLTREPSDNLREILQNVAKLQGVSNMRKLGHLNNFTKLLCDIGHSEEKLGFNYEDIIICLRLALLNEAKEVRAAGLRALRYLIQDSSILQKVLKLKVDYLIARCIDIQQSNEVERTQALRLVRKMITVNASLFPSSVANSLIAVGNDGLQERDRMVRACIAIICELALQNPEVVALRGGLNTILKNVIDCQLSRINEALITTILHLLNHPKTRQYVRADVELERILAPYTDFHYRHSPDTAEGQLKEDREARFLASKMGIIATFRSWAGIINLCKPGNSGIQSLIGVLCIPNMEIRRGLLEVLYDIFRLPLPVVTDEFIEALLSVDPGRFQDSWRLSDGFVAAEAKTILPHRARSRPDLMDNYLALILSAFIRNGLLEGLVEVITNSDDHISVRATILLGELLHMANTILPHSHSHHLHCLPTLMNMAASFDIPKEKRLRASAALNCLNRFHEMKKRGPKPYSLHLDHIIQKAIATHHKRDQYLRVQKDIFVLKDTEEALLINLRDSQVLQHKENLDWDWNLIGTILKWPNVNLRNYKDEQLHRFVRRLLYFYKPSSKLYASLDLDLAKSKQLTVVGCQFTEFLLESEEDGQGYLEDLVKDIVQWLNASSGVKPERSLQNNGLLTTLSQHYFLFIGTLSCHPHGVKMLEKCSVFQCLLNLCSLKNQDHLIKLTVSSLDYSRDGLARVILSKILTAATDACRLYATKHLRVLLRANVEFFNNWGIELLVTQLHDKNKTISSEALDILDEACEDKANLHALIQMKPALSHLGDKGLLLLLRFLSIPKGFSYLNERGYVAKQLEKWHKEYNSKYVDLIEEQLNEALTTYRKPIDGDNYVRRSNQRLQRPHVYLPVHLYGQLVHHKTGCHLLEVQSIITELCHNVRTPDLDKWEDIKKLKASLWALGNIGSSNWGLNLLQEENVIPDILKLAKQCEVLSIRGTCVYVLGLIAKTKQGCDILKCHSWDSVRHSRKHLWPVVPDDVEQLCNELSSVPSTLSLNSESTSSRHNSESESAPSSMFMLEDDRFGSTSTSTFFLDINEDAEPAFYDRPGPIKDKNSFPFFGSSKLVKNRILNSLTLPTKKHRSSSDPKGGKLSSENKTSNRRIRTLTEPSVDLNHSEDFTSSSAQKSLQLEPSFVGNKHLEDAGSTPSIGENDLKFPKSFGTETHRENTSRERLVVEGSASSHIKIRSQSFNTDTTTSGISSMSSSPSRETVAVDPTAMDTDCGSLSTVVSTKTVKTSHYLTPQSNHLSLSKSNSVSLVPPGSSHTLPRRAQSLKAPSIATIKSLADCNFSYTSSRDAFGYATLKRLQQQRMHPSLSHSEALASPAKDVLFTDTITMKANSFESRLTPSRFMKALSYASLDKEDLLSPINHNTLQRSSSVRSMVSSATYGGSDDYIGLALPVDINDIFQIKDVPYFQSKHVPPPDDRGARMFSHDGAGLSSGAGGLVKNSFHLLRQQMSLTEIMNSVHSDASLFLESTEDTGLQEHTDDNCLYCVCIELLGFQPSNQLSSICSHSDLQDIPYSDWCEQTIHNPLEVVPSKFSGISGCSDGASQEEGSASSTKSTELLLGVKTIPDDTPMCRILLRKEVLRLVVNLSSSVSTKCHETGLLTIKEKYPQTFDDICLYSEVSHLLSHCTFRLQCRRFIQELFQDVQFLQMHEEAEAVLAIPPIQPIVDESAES
UniProt P70168: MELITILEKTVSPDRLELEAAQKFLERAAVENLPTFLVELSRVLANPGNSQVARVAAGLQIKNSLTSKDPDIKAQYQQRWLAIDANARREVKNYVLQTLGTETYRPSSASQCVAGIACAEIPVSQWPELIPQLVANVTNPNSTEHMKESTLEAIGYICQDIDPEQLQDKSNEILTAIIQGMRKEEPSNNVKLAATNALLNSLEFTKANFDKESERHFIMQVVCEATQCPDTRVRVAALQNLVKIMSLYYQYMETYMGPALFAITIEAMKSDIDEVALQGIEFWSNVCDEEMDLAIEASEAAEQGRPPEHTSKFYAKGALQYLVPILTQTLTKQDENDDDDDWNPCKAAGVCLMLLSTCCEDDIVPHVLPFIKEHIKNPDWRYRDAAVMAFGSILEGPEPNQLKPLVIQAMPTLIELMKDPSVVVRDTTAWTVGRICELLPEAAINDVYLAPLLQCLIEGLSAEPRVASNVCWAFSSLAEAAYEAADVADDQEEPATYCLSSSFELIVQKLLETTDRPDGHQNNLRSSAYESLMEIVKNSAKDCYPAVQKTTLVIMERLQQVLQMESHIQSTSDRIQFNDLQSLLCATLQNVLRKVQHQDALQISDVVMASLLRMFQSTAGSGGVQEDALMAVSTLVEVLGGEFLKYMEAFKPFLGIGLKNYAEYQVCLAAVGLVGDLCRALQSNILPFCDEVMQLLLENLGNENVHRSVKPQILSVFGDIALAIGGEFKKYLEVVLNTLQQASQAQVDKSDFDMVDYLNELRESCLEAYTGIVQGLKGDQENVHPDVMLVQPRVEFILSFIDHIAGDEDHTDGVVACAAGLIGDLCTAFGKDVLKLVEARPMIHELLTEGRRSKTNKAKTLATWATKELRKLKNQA

B1: importin 4 (protein, UniProt Q8VI75 1-1082)
chain: MEPAGLEQILKELLLPDTERIRRATEQLQTILRDPAALPALFDLLATATDSQIRQFAAVLTRRRLNNRWRRLAPEQRESLKSLVLTALQKETVHSVSVSLAQLSATIFRKEGLQGWPQFMNLLQHSTHSSHSPEKEVGLLLLSVVVSSQPEAFHAHQHELLQLLNETLSDVSFPGVLFYSLRTLTAIARYVRPDDVSLARMLVPKVVTALRTLIPLDEVKACEALEALDEMLETELPIINPHLSEVLTFCLEVAKNVALGEPLRVRVLCCLTFLVKVKSKALLKNRLVPPLLHALFPLMAAEPPMGQLDPEDQDSDDDDLEIGLMGETPKHFAVQVVDMLALHLPPEKLCPHVMPMLEEALRSEDPYQRKAGFLVLAVLSDGAGDHIRQRLLYPLLQIVCKGLDDPSQIVRNAALFALGQFSENLQPHISSYSEEVMPLLLSYLKSVPMGNTHHLAKACYALENFVENLGPKVQPYLPELMECMLQPLKNPSKARTKELAVSAIGAIATAAQDSLLPYFPTIMDLLREFLLTGHEDFHLVQIQSLETLGVLARALGESMKPLAEECCQLGLGLCIHIDDPDVRRCTYSLFAALSGLMGEGLGPYLPQITTLMLLSLRSTEGIVPQYDGISSFLLFDDDSEAEEEEELMDEDMEEEGDDSEISGYSVENAFFDEKEDTCTALGEISMNTCVAFLPFMDATFDEVYKLLECPHMNVRKSAYEALGQFCCALHKASQRSSSDPSSSPVLQTSLARVMPAYMQAVKVERERPVVMAVLESLTGVLRTCGSLALQPPGRLSELCNVLKAVLQKKTACQDAEEDDDEDDDQAEYDAMLLEHAGEAIPVLAATAGGHAFAPFFATFLPLLLCKTKQSCTVAEKSFAVGTLAESIQGLGTASAQFVSRLFPVLLNNAREADPEVRSNAIFGLGVLAEHGGCPAQDHFPKLLGLLLPLLARERHDRVRDNICGALARVLMASPVGKTEPQVLATLLRALPLKEDMEEWLTIGHLFSFLHQNNPEQVVDVASELLRICSLILPDNRIPPDTKAALLLLLTFLAKQHTDSFHTALGSLPNDKAQELQAMMGLT
B2: importin 5 (protein, UniProt Q8BKC5 1-1097)
chain: MAAAAAEQQQFYLLLGNLLSPDNVVRKQAEETYENIPGRSKITFLLQAIRNTTAAEEARQMAAVLLRRLLSSAFDEVYPALPSDVQTAIKSELLMIIQMETQSSMRKKICDIAAELARNLIDEDGNNQWPEGLKFLFDSVSSQNMGLREAALHIFWNFPGIFGNQQQHYLDVIKRMLVQCMQDQEHPSIRTLSARATAAFILANEHNVALFKHFADLLPGFLQAVNDSCYQNDDSVLKSLVEIADTVPKYLRPHLEATLQLSLKLCGDTNLNNMQRQLALEVIVTLSETAAAMLRKHTSLIAQTIPQMLAMMVDLEEDEDWANADELEDDDFDSNAVAGESALDRMACGLGGKLVLPMIKEHIMQMLQNPDWKYRHAGLMALSAIGEGCHQQMEGILNEIVNFVLLFLQDPHPRVRYAACNAVGQMATDFAPGFQKKFHEKVIAALLQTMEDQGNQRVQAHAAAALINFTEDCPKSLLIPYLDNLVKHLHSIMVLKLQELIQKGTKLVLEQVVTSIASVADTAEEKFVPYYDLFMPSLKHIVENAVQKELRLLRGKTIECISLIGLAVGKEKFMQDASDVMQLLLKTQTDFNDMEDDDPQISYMISAWARMCKILGKEFQQYLPVVMGPLMKTASIKPEVALLDTQDMENMSDDDGWEFVNLGDQQSFGIKTAGLEEKSTACQMLVCYAKELKEGFVEYTEQVVKLMVPLLKFYFHDGVRVAAAESMPLLLECARVRGPEYLTQMWHFMCDALIKAIGTEPDSDVLSEIMHSFAKCIEVMGDGCLNNEHFEELGGILKAKLEEHFKNQELRQVKRQDEDYDEQVEESLQDEDDNDVYILTKVSDILHSIFSSYKEKVLPWFEQLLPLIVNLICPQRPWPDRQWGLCIFDDIVEHCSPASFKYAEYFISPMLQYVCDNSPEVRQAAAYGLGVMAQFGGDNYRPFCTDALPLLVRVIQAPEAKTKENVNATENCISAVGKIMKFKPDCVNVEEVLPHWLSWLPLHEDKEEAVQTFSYLCDLIESNHPIVLGPNNTNLPKIFSIIAEGEMHEAIKHEDPCAKRLANVVRQVQTSGGLWTECIAQLSPEQQAAIQELLNSA
B3: Nup93 (protein, UniProt Q8BJ71 1-819)
chain: MDTEGFGELLQQAEQLAAETEGISELPHVERNLQEIQQAGERLRSRTLTRTSQETADVKASVLLGSRGLDISHISQRLESLSAATTFEPLEPVKDTDIQGFLKNEKDNALLSAIEESRKRTFGMAEEYHRESMLVEWEQVKQRILHTLLASGEDALDFTQESEPSYIGDVNPPGRSSLDSIEMAYARQIYIYNEKIVSGHLQPNLVDLCASVAELDDKSISDMWAMVKQMTDVVLTPATDALKSRSSVEVRMDFVKQALGYLEQSYKNYTLVTVFGNLHQAQLGGVPGTYQLVRSFLNIKLPAPSPGLQDGEVEGHPVWALIYYCMRCGDLLAASQVVSRAQHQLGEFKTWFQEYMNSKDRRLSPATENKLRLHYRRALRNNTDPYKRAVYCIIGRCDITDNQSEVADKTEDYLWLKLNQVCFDDDGTSSPQDRLTLSQFQKQLLEDYGESHFTVNQQPFLYFQVLFLTAQFEAAIAFLFRMERLRCHAVHVALVLFELKLLLKSSGQSAQLLSHEPGDPPCMRRLNFVRLLMLYTRKFESTDPREALQYFYFLRDEKDSQGENMFLRCVSELVIESREFDMILGKLENDGSRKPGVIDKFTSDTKPIINKVASVAENKGLFEEAAKLYDLAKNADKVLELMNKLLSPVVPQISAPQSNKERLKNMALSIAERYRAQGISANKFVDSTFYLLLDLITFFDEYHSGHIDRAFDIIDRLKLVPLNQESVEERVAAFRNFSDEIRHNLSEVLLATMNILFTQFKRLKGTSPSSATRPQRVIEDRDSQLRSQARALITFAGMIPYRTSGDTNARLVQMEVLMN
B4: TRI56 (protein, UniProt Q80VI1 1-734)
chain: MNSKVSSPTLLEALSSDFLACKICLEQLHTPKTLPCLHTYCQDCLAQLDIGGQVRCPECREIVPVPAEGVAAFKTNFFVNGLLDLVKARAPGDVHSGKPTCALCPLVGGKSSGGPATARCLDCADDLCQACADGHRCSRQTHKHRVVDLVGYRAGWYDEEARERQASQCPQHPGEALCFLCQPCSQLLCKDCRLGPHIDHPCLPLAEAVRSRKPGLEELLAGVDSNLVELEATRVAEKEALALLREQAASVGTQVEEAAERILKSLLAQKQEVLGQLRALVEAAEEATRERLTKIERQEQVAKAAAAFARRVLSLGLEAEILSLEGAITQRLRQLQDAPWTSGPTRCVLPQLELHPGLEDKNCHLLRLIFEEPKQSPKDSGKGGAGTQGGDEAQGQGDDRTKIGKQGGAQPLTPKEGKDQNPQEDDGVFIERGNRPNKKKKCKGRGKSVSREPSPILRPNLEGSGLLPRPVFSWSFPTRMPGDKRSPRITGLCPYGPQEILVADEQNRVLKRFSLNGDYKGTVQVPEGCSPCSVAALQNAVAFSANAKLYLVSPDGEIQWRRSLSLTQSSHAVAAMPCGDRVAVSVAGHVEVYKKDGSLATRFIPGGKASRGQRALVFLTTSPQGNFVGSDWQQNSVVFCDGLGQVIWEYKGPGLHGCQPGSVSVDKKGYIFLTLREVNKVVILDPKGSLLGDFLTAYHGLEKPRVTTMVDGKYLVVSLSNGTIHVFRVRFPDS
B5: PSA2 (protein, UniProt P49722 1-234)
chain: MAERGYSFSLTTFSPSGKLVQIEYALAAVAGGAPSVGIKAANGVVLATEKKQKSILYDERSVHKVEPITKHIGLVYSGMGPDYRVLVHRARKLAQQYYLVYQEPIPTAQLVQRVASVMQEYTQSGGVRPFGVSLLICGWNEGRPYLFQSDPSGAYFAWKATAMGKNYVNGKTFLEKRYNEDLELEDAIHTAILTLKESFEGQMTEDNIEVGICNEAGFRRLTPTEVRDYLAAIA
B6: PSA3 (protein, UniProt O70435 1-255)
chain: MSSIGTGYDLSASTFSPDGRVFQVEYAMKAVENSSTAIGIRCKDGVVFGVEKLVLSKLYEEGSNKRLFNVDRHVGMAVAGLLADARSLADIAREEASNFRSNFGYNIPLKHLADRVAMYVHAYTLYSAVRPFGCSFMLGSYSANDGAQLYMIDPSGVSYGYWGCAIGKARQAAKTEIEKLQMKEMTCRDVVKEVAKIIYIVHDEVKDKAFELELSWVGELTKGRHEIVPKDIREEAEKYAKESLKEEDESDDDNM
B7: PSA4 (protein, UniProt Q9R1P0 1-261)
chain: MSRRYDSRTTIFSPEGRLYQVEYAMEAIGHAGTCLGILANDGVLLAAERRNIHKLLDEVFFSEKIYKLNEDMACSVAGITSDANVLTNELRLIAQRYLLQYQEPIPCEQLVTALCDIKQAYTQFGGKRPFGVSLLYIGWDKHYGFQLYQSDPSGNYGGWKATCIGNNSAAAVSMLKQDYKEGEMTLKSALALAVKVLNKTMDVSKLSAEKVEIATLTRESGKTVIRVLKQKEVEQLIKKHEEEEAKAEREKKEKEQREKDK

target: heat shock transcription factor 1 (endogenous, mouse striatal cells) (mouse (endogenous in STHdh striatal cells)) (UniProt P38532); assay: affinity purification with mass spectrometry; endogenous untagged HSF1 immunoprecipitated with polyclonal anti-HSF1 covalently linked to DynaG beads from STHdh Q7 (control), Q7 heat shock (42 °C, 30 min) and Q111 (HD) lysates, no cross-linker; IgG IP as control; hits at least twofold over IgG, p < 0.05, ProteinTeller probability >= 0.8; quantitative LC-MS/MS

Question: For B1, which binding is on record?
Answer: The binding was “binds”.

Question: How did the binding turn out when B2 was run?
Answer: The binding was “binds”.

Question: Which binding does the source give for B3 here?
Answer: The binding was “binds”.

Question: With B4 as the molecule, how does the binding read?
Answer: The binding was “binds”.

Question: B5 was tested. Which binding did it give?
Answer: The binding was “binds”.

Question: For B6, which binding is on record?
Answer: The binding was “binds”.

Question: Which binding does the source give for B7 here?
Answer: Its binding is “binds”.

target: heat shock transcription factor 1 (endogenous, mouse striatal cells) (mouse (endogenous in STHdh striatal cells)) (UniProt P38532); assay: as above; remark: another data set of the same source

Question: Which binding does the source give for PSA7 (from UniProt Q9Z2U0 1-248) here?
Answer: Its binding is “binds”.

Question: For PSA5 (from UniProt Q9Z2U1 1-241), which binding is on record?
Answer: The binding was “binds”.

Question: Which binding does the source give for “chibby family member 1 (from UniProt Q9D1C2 1-127)” here?
Answer: The binding was “binds”.

Question: Which binding does the source give for JHD2C (from UniProt Q69ZK6 1-2531) here?
Answer: Its binding is “binds”.

Question: importin 9 (from UniProt Q91YE6 1-1041) was tested. Which binding did it give?
Answer: Its binding is “binds”.

Question: With “sorting nexin 9 (from UniProt Q91VH2 1-595)” as the molecule, how does the binding read?
Answer: The binding was “binds”.

Question: With “BCL2-associated athanogene 3 (from UniProt Q9JLV1 1-577)” as the molecule, how does the binding read?
Answer: Its binding is “binds”.

Question: For importin 7 (from UniProt Q9EPL8 1-1038), which binding is on record?
Answer: The binding was “binds”.

Question: How did the binding turn out when PSA1 (from UniProt Q9R1P4 1-263) was run?
Answer: The binding was “binds”.

Question: Which binding does the source give for RuvBl1 (from UniProt P60122 1-456) here?
Answer: The binding was “binds”.

Question: With “X-ray repair cross complementing 5 (from UniProt P27641 1-732)” as the molecule, how does the binding read?
Answer: Its binding is “binds”.

Question: Which binding does the source give for SMC5 (from UniProt Q8CG46 1-1101) here?
Answer: The binding was “binds”.

Question: For Nedd4 (from UniProt P46935 1-887), which binding is on record?
Answer: Its binding is “binds”.

Question: For PSA6 (from UniProt Q9QUM9 1-246), which binding is on record?
Answer: The binding was “binds”.

Question: For RuvBl2 (from UniProt Q9WTM5 1-463), which binding is on record?
Answer: The binding was “binds”.

Question: How did the binding turn out when “rapamycin-insensitive companion of mTOR (from UniProt Q6QI06 1-1708)” was run?
Answer: Its binding is “binds”.

Question: importin β (from UniProt P70168 1-876) was tested. Which binding did it give?
Answer: The binding was “binds”.

These are yes or no findings as the source states them, for the method shown. Binding seen in cells or lysates may run through a third protein. Here binding means that the protein was enriched with, or labelled near, the bait; the list need not be complete.
